Out of some 340,000 compounds screened, about 6,200 (1.8%) were called active. Inconclusive means that the source gave no clear call. Such entries were picked first, then a sample of the others. The call rests on the fitted dose curve; in most records, active means well fitted activation curve with a large enough effect; inconclusive means small, poorly fitted or top-dose-only effect; inactive means no such curve, though single readings can be large or run the other way. Where the call is inconclusive, the potency comes from a doubtful curve fit.
assay: A quantitative high throughput screen for small molecules that induce DNA re-replication in SW480 colon adenocarcinoma cells.; further: nearly all actives have a fitted effect of over 55% in size; on re-replication activation: % of control where 0% means no effect; details: Hoechst DNA content imaging, 48 h; re-replication activation: at 46.1 µM (top of the series) unless noted
How it was run: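 Quantitative HTS format with DMSO vehicle controls; 48 hr drug incubation at 37 C, then 40 min Hoechst staining and scanning imager measurement at 405 nm excitation.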
Potency means the concentration at half of the fitted maximal effect.

SMILES	Potency	re-replication activation
COc1cccc(CNCC(O)(c2ccc(Cl)cc2)c2ccc(Cl)cc2)c1	inconclusive: 25.9 µM [activator, single point]	
CCN(CC)S(=O)(=O)c1cc(OC)ccc1N=Nc1ccc(O)c2ncccc12	inconclusive: 0.517 µM [activator, full curve]	
Cc1ccc(OCCN2C(=O)C(=O)c3cccc(C)c32)cc1	inconclusive: 29.1 µM [activator, single point]	
COc1cc(/C=N/n2cnc3c(sc4nc(C)cc(C)c43)c2=O)ccc1O	inconclusive: 29.1 µM [activator, single point]	
N#CCC(=O)N/N=C/c1c(-c2ccccc2)n(-c2ccccc2)c2ccccc12	inconclusive: 29.1 µM [activator, partial curve, poor fit]	
CCC(C)c1ccc2oc(-c3ccc(NC(=O)c4ncn[nH]4)cc3)nc2c1 (stereo not drawn)	inconclusive: 1.46 µM [activator, full curve]	
O=C(N/N=C/c1cccnc1)c1cc(-c2ccccc2OCc2ccccc2)n[nH]1	inconclusive: 20.6 µM [activator, single point]	
CCN(c1ccccc1)S(=O)(=O)c1ccc2c(c1)CC(C)N2C(=O)C1CC1 (stereo not drawn)		inactive: -1.59%
O=S(=O)(c1ccccc1)N1CCC2(CC1)CO2		inactive: -4.25%
O=C(Cn1cnc2ccccc21)Nc1ccc2c(c1)OCCCO2	inconclusive: 4.61 µM [activator, full curve, poor fit]	
O=S(=O)(CCNCc1ccccc1)NC1CCCCC1		inactive: 0.779%
CC12CCC(=O)N1C(C(=O)Nc1nnc(SCc3ccc(F)cc3)s1)CS2 (stereo not drawn)	inconclusive: 13 µM [activator, single point]	
COc1ccc(CNCCC(c2ccccc2)c2ccc(OC(C)C)cc2)cc1OC (stereo not drawn)	inconclusive: 29.1 µM [activator, single point]	
OCCOCCNc1ncnc2nc[nH]c12		inactive: -1.42%
CC1CCN(C(=O)c2cc3ccccc3o2)CC1	inconclusive: 18.4 µM [activator, single point]	
COc1ccc(C(=O)NNC2=C(C(=O)C(F)(F)F)CCC2)cc1	inconclusive: 25.9 µM [activator, single point]	
[O-][n+]1ccccc1SSc1cccc[n+]1[O-]	inconclusive: 0.596 µM [activator, full curve, poor fit]	
COc1ccc(CN(Cc2cccn2C)S(=O)(=O)c2ccccc2)cc1	inconclusive: 5.17 µM [activator, full curve, poor fit]	
C=CCN(CC=C)S(=O)(=O)c1ccc(NC(=S)NC(=O)/C=C/c2cccc3ccccc23)cc1		inactive: -0.0645%
COc1ccc(NC(C)C(=O)N/N=C/c2ccccc2OCc2cccc(Br)c2)cc1 (stereo not drawn)	inconclusive: 29.1 µM [activator, single point]	
CCOc1ccccc1CN1CCN(Cc2cc(=O)c3ccccc3[nH]2)CC1CCO (stereo not drawn)	inconclusive: 29.1 µM [activator, single point]	
COc1ccc(C2=NN(c3ccc(C=O)cc3)C(c3ccccc3)C2)cc1 (stereo not drawn)	inconclusive: 1.84 µM [activator, partial curve, poor fit]	
COc1cc(NC(=O)c2ccccc2OCc2ccccc2)cc(OC)c1OC		inactive: -7.24%

SMILES	Potency	re-replication activation
Cc1oc(-c2ccc(Cl)cc2)nc1CS(=O)CC(=O)NCCN1CCCCCC1 (stereo not drawn)		inconclusive: -33.8% [activator]
Cc1ccc(C(=O)N2C(CC(=O)Nc3ccc(Cl)cc3)C(=O)NC3CCCCC32)cc1 (stereo not drawn)	active: 23.1 µM	
COc1cccc(/C=N/NC(=O)c2cc3c(OC)cccc3[nH]2)c1O	active: 9.2 µM	
CCOc1ccc(N(C(=O)c2ccc(S(=O)(=O)N3CCCC3)cc2)C2C=CS(=O)(=O)C2)cc1 (stereo not drawn)		inconclusive: 92.2% [activator]
CC(=O)Nc1ccc(Nc2nnc(-c3ccc(C)c(S(=O)(=O)NCC4CCCO4)c3)c3ccccc23)cc1 (stereo not drawn)		inactive: -6.97%
CC(C)C(=O)O/N=C(\N)c1ccc(Oc2ccc(Cl)cc2)c([N+](=O)[O-])c1	inconclusive: 6.51 µM [activator, single point]	
Oc1cccc2ccc(/C=C/c3ccccc3Cl)nc12	inconclusive: 3.66 µM [activator, full curve, poor fit]	
COC(=O)N/N=C\c1ccc(-c2cc(Cl)c(Cl)cc2Cl)o1	inconclusive: 29.1 µM [activator, single point]	
CC(C)(C)c1ccc(C(=O)N2CCNC(=O)C2CC(=O)Nc2ccc(F)cc2)cc1 (stereo not drawn)	inconclusive: 20.6 µM [activator, single point]	
CCOCc1c(C(=O)OCC(=O)NCc2ccc(F)cc2)oc2ccccc12		inactive: -0.476%
O=C(O)c1cc(-c2ccc(/C=C3\NC(=O)N(c4ccc(Cl)cc4)C3=O)o2)ccc1Cl	inconclusive: 7.31 µM [activator, partial curve, poor fit]	
Clc1ccc(CN=C(Nc2ccccc2)NC2CCCCC2)cc1	inconclusive: 29.1 µM [activator, single point]	
CC1CC(C)CN(C(=O)CCC(=O)Nc2nnc(C(C)C)s2)C1 (stereo not drawn)	inconclusive: 1.3 µM [activator, single point]	
COc1ccc(CC(=O)NCc2cccs2)cc1	inconclusive: 29.1 µM [activator, single point]	
Cc1ccc(C(=O)Nc2nc(C)c(C(=O)Nc3ccc4c(c3)CCC4)s2)cc1	active: 5.8 µM	
O=C(CC(=O)N/N=C/c1cccs1)NCc1ccccc1		inactive: -9.89%
COC(=O)c1ccc(C(=O)NC2CCCc3c2cnn3-c2ccccc2F)nc1 (stereo not drawn)	active: 18.4 µM	
C[C@@H]1CN([C@H](C)CO)C(=O)c2cc(NS(=O)(=O)c3cn(C)cn3)ccc2O[C@H]1CN(C)C(=O)Nc1ccccc1		inactive: -0.872%
O=c1[nH]c2ccc(Cl)cc2c(-c2ccccc2)c1CN1CCOCC1	inconclusive: 29.1 µM [activator, single point]	
O=C(CNC(=O)c1ccccc1)N=Nc1c(O)[nH]c2ccc(Br)cc12	inconclusive: 35.5 µM [activator, single point]	
Cc1ccc(C)c(Nc2c([N+](=O)[O-])c(=O)oc3ccccc23)c1	inconclusive: 23.1 µM [activator, single point]	
C=CCNC1=C(Cl)C(=O)N(Cc2ccccc2)C1=O		inactive: -22.5%
Cc1ccc(C(=O)CC(Nc2ccc(F)cc2)c2ccccc2)cc1 (stereo not drawn)		inactive: 2.54%

SMILES	Potency	re-replication activation
C=CCC1NS(=O)(=O)OCC1C(C)C (stereo not drawn)	inconclusive: 0.0046 µM [activator, full curve, poor fit]	
CCOC(=O)c1ccc(NC(=O)COc2ccc(CNC3CCCCC3)cc2OC)cc1	inconclusive: 20.6 µM [activator, partial curve, poor fit]	
COc1ccccc1/C=C/C(=O)c1ccc(Cl)cc1	inconclusive: 29.1 µM [activator, single point]	
Cc1ccc(Cl)c2c1NC(=O)C2(O)CC(=O)c1ccc(F)cc1 (stereo not drawn)	inconclusive: 6.51 µM [activator, single point]	
COc1cccc(CN(C)Cc2cc(=O)oc3cc(O)c(Cl)cc23)c1	inconclusive: 0.58 µM [activator, full curve, poor fit]	
CCOC(=O)C1=C(CNCc2ccc(C)cc2)NC(=O)NC1c1ccc(OC)cc1 (stereo not drawn)	inconclusive: 23.1 µM [activator, single point]	
Cc1ccc(C)c(NC(=S)NNC(=S)Nc2ccc(C(C)C)cc2)c1	inconclusive: 20.6 µM [activator, single point]	
Cc1nc(OCC(=O)c2ccc(Cl)cc2)c(C#N)c2c1COC(C)(C)C2	active: 20.6 µM	
CN(/N=C/c1ccc(N(C)C)cc1)C1=NS(=O)(=O)c2ccccc21	active: 7.31 µM	
Cc1ccc(C(=O)/C=C/c2ccc(Br)cc2)o1	active: 18.4 µM	
Cc1ccc(S(=O)(=O)N(C)c2ccc(OCC(=O)NCC3(N(C)C)CCCCC3)cc2)cc1		inactive: -3.96%
Cc1cc(C(=O)N/N=C/c2ccc(-c3cccc(Cl)c3)o2)n[nH]1		inactive: 13.8%
CCO[C@@H]1OC(C(=O)NC2CC2)=C[C@H](c2ccc3c(c2)OCO3)[C@H]1CCCO	inconclusive: 0.517 µM [activator, full curve, poor fit]	
CCN(c1ccccc1)S(=O)(=O)c1cccc(C(=O)OCC(=O)c2c(N)n(C)c(=O)n(C)c2=O)c1		inactive: 14.9%
O=C(CSc1ncnc2sc3c(c12)CCCCC3)NCc1ccco1	inconclusive: 25.1 µM [activator, single point]	
COc1ccc(OC)c2sc(N(CCN(C)C)C(=O)/C=C/c3cccs3)nc12	inconclusive: 29.1 µM [activator, single point]	
Cc1ccc(NC(=O)c2nnn(CC(=O)Nc3ccc4c(c3)OCO4)c2N)cc1C		inactive: -25.2%
Cc1sc2cc3c(c(C(=O)c4ccccc4)[n+]2c1C)-c1cccc2cccc-3c12	inconclusive: 18.4 µM [activator, single point]	
Cc1c(N=Nc2c(-c3ccc([N+](=O)[O-])cc3)[nH]n(C(N)=S)c2=O)cccc1[N+](=O)[O-]	inconclusive: 4.61 µM [activator, full curve]	
Cc1cccc2sc(NC(=O)c3cc(S(=O)(=O)N(C)C)ccc3N3CCCC3)nc12	inconclusive: 11.6 µM [activator, partial curve, poor fit]	
O=S(=O)(NCCN1CCOCC1)c1ccc(F)c(Cl)c1	inconclusive: 29.1 µM [activator, single point]	
COc1ccc(C2=NOC(C(=O)NCc3ccccc3)C2)cc1 (stereo not drawn)	active: 2.59 µM	

Twelve entries from above, with bars between the fields:
SMILES | Potency | re-replication activation
CCC(C)c1ccc2oc(-c3ccc(NC(=O)c4ncn[nH]4)cc3)nc2c1 (stereo not drawn) | inconclusive: 1.46 µM [activator, full curve] | 
OCCOCCNc1ncnc2nc[nH]c12 |  | inactive: -1.42%
COc1ccc(C2=NN(c3ccc(C=O)cc3)C(c3ccccc3)C2)cc1 (stereo not drawn) | inconclusive: 1.84 µM [activator, partial curve, poor fit] | 
Cc1oc(-c2ccc(Cl)cc2)nc1CS(=O)CC(=O)NCCN1CCCCCC1 (stereo not drawn) |  | inconclusive: -33.8% [activator]
Clc1ccc(CN=C(Nc2ccccc2)NC2CCCCC2)cc1 | inconclusive: 29.1 µM [activator, single point] | 
O=c1[nH]c2ccc(Cl)cc2c(-c2ccccc2)c1CN1CCOCC1 | inconclusive: 29.1 µM [activator, single point] | 
CCOC(=O)c1ccc(NC(=O)COc2ccc(CNC3CCCCC3)cc2OC)cc1 | inconclusive: 20.6 µM [activator, partial curve, poor fit] | 
COc1ccccc1/C=C/C(=O)c1ccc(Cl)cc1 | inconclusive: 29.1 µM [activator, single point] | 
CCOC(=O)C1=C(CNCc2ccc(C)cc2)NC(=O)NC1c1ccc(OC)cc1 (stereo not drawn) | inconclusive: 23.1 µM [activator, single point] | 
Cc1ccc(C)c(NC(=S)NNC(=S)Nc2ccc(C(C)C)cc2)c1 | inconclusive: 20.6 µM [activator, single point] | 
Cc1nc(OCC(=O)c2ccc(Cl)cc2)c(C#N)c2c1COC(C)(C)C2 | active: 20.6 µM | 
Cc1ccc(NC(=O)c2nnn(CC(=O)Nc3ccc4c(c3)OCO4)c2N)cc1C |  | inactive: -25.2%
